Assay results as given in patent publication US7501430B2 (ArQule, Inc., priority 2006, dated 2009).
The structures given here were assigned with low confidence; some may be wrong.

Protein sequences, listed by entry. Tags and fused reporters are not part of them.
UniProt P15056, whole entry V600E: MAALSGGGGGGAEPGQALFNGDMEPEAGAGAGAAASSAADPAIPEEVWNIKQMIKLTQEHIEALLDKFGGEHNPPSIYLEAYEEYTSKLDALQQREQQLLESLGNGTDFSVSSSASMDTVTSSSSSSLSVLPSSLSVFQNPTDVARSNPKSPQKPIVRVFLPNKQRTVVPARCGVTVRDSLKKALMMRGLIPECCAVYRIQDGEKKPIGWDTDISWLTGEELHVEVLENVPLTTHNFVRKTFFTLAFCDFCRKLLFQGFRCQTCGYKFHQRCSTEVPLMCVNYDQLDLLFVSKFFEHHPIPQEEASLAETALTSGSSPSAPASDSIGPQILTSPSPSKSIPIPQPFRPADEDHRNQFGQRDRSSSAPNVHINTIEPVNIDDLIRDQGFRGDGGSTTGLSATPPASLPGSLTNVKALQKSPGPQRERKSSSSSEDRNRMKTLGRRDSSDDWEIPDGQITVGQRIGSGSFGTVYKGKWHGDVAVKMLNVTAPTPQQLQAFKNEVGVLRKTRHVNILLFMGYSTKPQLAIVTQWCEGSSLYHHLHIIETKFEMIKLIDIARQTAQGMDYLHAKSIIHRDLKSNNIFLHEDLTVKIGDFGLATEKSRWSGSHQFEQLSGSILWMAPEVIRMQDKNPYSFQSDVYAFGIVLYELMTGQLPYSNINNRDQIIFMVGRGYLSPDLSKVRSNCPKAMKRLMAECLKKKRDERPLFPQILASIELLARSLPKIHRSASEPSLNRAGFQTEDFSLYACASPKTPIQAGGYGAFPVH

biological target: mutant B-RAF (Homo sapiens, UniProt P15056, V600E); assay: RAF biochemical assay (MEK-1 phosphorylation, anti-phospho MEK1/2 detection); conditions: read-out: Mutant B-RAF IC50

SMILES | IC50
O=S(=O)(c1ccc(Cl)cc1)N1CCC[C@@H](Nc2nccc(-c3c(-c4cccc(O)c4)nc4occn34)n2)C1 | 38 nM
N#Cc1ccc(S(=O)(=O)N2CCC[C@@H](Nc3nccc(-c4c(-c5cccc(O)c5)nc5occn45)n3)C2)cc1 | 10 nM
CCCCNC(=O)N1CCC(Nc2nccc(-c3c(-c4cccc(O)c4)nc4sccn34)n2)CC1 | 3000 nM
O=S(=O)(c1ccc(F)cc1)N1CCC(Nc2nccc(-c3c(-c4cccc(O)c4)nc4occn34)n2)CC1 | 46 nM
